According to PubChem BioAssay (EPA / NIEHS):
For some assays here: Shown are results outside the selection of hits, which stands elsewhere. Records with an inconclusive call do not appear. The entries are a selection whose mix differs from that of the whole data set. Calls of active or inactive are those of the source. Rule for the calls, unless noted: active = hit-call score of the fitted dose curve at least 0.9, where 1 is the maximum; inconclusive = response in the unintended direction; inactive = score below 0.9.

By UniProt entry, the sequences of proteins in these tests, tags left out. Where a name states a change or a piece, a line headed by the entry shows the natural chain unless it says otherwise.
UniProt P08659, whole entry, looked up: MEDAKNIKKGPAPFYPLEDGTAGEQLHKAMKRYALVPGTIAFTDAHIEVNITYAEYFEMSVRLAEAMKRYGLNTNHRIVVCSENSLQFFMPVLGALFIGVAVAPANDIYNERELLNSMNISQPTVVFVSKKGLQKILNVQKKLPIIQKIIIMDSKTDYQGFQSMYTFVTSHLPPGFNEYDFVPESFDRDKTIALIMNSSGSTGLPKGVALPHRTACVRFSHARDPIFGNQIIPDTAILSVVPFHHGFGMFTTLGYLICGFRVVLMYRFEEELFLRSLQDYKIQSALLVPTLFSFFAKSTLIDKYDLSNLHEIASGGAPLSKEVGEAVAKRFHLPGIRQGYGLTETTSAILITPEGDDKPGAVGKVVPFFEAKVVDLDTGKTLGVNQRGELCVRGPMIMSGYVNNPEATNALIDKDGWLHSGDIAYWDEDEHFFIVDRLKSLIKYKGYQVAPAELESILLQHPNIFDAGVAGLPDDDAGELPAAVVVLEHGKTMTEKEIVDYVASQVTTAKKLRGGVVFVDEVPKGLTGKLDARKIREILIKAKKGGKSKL
UniProt P06401: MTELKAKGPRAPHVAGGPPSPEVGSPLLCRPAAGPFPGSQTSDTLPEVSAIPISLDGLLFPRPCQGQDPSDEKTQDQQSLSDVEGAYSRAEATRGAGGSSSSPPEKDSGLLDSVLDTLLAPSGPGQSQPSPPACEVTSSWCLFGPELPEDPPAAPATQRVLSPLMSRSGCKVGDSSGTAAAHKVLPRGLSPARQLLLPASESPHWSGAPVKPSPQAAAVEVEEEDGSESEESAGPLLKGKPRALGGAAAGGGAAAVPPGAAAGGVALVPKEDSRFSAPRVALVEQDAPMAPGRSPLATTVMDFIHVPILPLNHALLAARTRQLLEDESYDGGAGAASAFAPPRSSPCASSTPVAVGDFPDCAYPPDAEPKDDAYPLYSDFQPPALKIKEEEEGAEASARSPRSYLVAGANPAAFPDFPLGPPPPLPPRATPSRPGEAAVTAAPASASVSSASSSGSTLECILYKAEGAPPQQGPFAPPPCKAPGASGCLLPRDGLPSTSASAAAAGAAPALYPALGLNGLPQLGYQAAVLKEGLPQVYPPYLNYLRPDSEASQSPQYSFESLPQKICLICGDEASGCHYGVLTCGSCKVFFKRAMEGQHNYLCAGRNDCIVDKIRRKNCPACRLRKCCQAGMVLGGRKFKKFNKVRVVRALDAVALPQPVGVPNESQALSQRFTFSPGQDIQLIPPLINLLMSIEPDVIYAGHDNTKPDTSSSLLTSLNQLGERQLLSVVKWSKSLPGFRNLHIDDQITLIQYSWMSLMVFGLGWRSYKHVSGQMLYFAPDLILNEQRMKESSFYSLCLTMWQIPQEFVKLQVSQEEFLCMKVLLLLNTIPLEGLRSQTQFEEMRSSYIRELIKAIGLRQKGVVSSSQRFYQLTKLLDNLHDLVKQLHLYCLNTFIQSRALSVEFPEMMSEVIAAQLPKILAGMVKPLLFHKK
UniProt P10827: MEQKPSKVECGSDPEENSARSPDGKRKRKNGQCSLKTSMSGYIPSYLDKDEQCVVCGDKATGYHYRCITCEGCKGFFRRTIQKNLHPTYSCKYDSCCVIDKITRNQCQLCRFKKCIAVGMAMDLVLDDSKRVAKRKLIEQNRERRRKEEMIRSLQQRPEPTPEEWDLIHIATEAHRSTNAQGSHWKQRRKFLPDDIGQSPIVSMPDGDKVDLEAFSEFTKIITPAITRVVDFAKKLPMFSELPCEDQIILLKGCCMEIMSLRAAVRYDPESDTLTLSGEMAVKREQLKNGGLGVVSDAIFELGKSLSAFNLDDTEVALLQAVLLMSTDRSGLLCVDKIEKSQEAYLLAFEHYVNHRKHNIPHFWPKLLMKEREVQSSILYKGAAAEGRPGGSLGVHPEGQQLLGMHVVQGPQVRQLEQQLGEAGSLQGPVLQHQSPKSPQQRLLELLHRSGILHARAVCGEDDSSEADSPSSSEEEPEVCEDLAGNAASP
UniProt P10828: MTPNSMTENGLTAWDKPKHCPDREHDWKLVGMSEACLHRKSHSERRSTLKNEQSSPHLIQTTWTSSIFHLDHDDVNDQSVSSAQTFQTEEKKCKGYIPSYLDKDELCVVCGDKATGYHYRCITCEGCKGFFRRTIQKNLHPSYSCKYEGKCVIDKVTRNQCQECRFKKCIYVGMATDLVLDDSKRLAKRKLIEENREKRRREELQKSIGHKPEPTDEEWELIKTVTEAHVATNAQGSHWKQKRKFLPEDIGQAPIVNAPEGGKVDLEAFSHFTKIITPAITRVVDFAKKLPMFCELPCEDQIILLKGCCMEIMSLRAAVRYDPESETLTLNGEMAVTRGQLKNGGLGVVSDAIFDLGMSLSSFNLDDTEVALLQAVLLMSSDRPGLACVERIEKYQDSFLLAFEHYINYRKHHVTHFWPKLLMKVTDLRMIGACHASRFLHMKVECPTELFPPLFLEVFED

Columns and labels:
[1] = CEETOX_H295R_MTT_cell_viability: Viability Assessment in the CeeTox HT-H295R MTT Assay (AID 2283718; active = hit-call score of the fitted dose curve at least 0.9, where 1 is the maximum; inactive = score below 0.9)
[2] = ATG_M_06_XSP2: Attagene TRANS-FACTORIAL Multi-Species (XSP2) HepG2 Assay for M06 Transcription Factor (Internal Marker) (AID 2283811);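 note: internal background marker reporter mRNA measured by RT-PCR and capillary electrophoresis; hits are increases in signal above the DMSO baseline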
Summary of the method: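 HepG2, multiplexed reporter transfection; 24 h dosing; AR stimulated with 3 nM 6-alpha-fluorotestosterone + 1.5 nM norgestrel; RNA → RT-PCR → 6-FAM primer extension → HpaI → CE. Positive direction vs DMSO.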

[3] = ATG_M_61_XSP2: Attagene TRANS-FACTORIAL Multi-Species (XSP2) HepG2 Assay for M61 Transcription Factor (Internal Marker) (AID 2283835; active = hit-call score of the fitted dose curve at least 0.9, where 1 is the maximum; inactive = score below 0.9;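 note: reporter mRNA of an internal background marker read by RT-PCR and capillary electrophoresis; active means a rise in signal above the DMSO baseline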)
Summary of the method: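 First, HepG2 cells are transfected with reporter units under GAL4-UAS control. Next, chemicals are applied for 24 h. Then total RNA is reverse-transcribed, amplified, fluorescently labelled and sized by capillary electrophoresis, with gain of signal scored against DMSO.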

[4] = molecular target: Luciferin 4-monooxygenase (Photinus pyralis) (UniProt P08659); assay: CCTE_Simmons_QuantiLum_inhib_2: CCTE's Firefly Luciferase Inhibition Assay, Simmons Lab (AID 2283767)
Summary of the method: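 Counter-screen for nonspecific enzyme inhibition: purified firefly luciferase incubated 30 min at 37C with chemicals up to 87.5 uM final, then luminescence measured after luciferin/dATP injection; activity fitted against DMSO baseline.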

[5] = system: chicken Androgen Receptor (AR), gene 422165; assay: ATG_chAR_XSP1: Attagene TRANS-FACTORIAL Multi-Species (XSP1) HepG2 Assay for chicken Androgen Receptor (AR) (AID 2283768)
Summary of the method: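 HepG2 cells transiently transfected with multiplexed GAL4-UAS reporter units expressing chimeric chicken AR-Gal4; 3 nM 6-alpha-fluorotestosterone for partial AR stimulation; 24 h after dosing, reporter mRNA by RT-PCR and capillary electrophoresis, gain-of-signal versus DMSO.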

[6] = ACEA_AR_antagonist_AUC_viability: ACEA Biosciences xCELLigence Real-Time Cell Analysis on Androgen Receptor Antagonism for Viability (AID 2283776);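 note: 22Rv1 human prostate cancer cells growing on impedance electrode plates; area under impedance growth curve at 80 h after dosing as viability; hits lower the growth signal relative to DMSO meaning cytotoxicity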
Summary of the method: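 Viability endpoint from label-free cell-index monitoring: 22Rv1 cultures treated with an eight-point 1:4 dilution series starting at 100 uM final, AUC at 80 h fitted against DMSO.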

[7] = CCTE_Harrill_HTTr_CellCount_MCF7: CCTE's Cell Proliferation Assessment for the High-Throughput Transcriptomics (HTTr) Platform, Harrill Lab (AID 2284012);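 note: count of Hoechst-stained nuclei per well by high-content imaging in MCF-7 cells; cells exposed to compound for six hours; intended direction is loss of nuclei count meaning fewer cells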
Summary of the method: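 Nuclei counting (Hoechst, high content imaging) in MCF-7 after a 6 h treatment at eight concentrations. Activity fitted bidirectionally, DMSO as negative control.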

[8] = system: Sodium/Iodide Symporter (NIS), SLC5A5 (gene 6528); assay: CPHEA_Stoker_NIS_Inhibition_RAIU: CPHEA's Radioactive Iodide Uptake (RAIU) Assay for Sodium/Iodide Symporter (NIS) Inhibition, Stoker and Laws Labs (AID 2283841)
Summary of the method: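 Test chemicals, six concentrations from 0.001 to 100uM in 0.5% DMSO, were co-incubated with carrier-free 125I (final 329pM) on hNIS-HEK293T-EPA monolayers in pH 7.4 HEPES-buffered HBSS. Plates stood 2 hours at room temperature, then were washed cold and counted.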

[9] = ACEA_ER_AUC_viability: ACEA Biosciences xCELLigence Real-Time Cell Analysis on Estrogen Receptor Agonism for Viability (AID 2283782);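 note: continuous compound exposure with impedance area under curve over 80 h; hit means loss of impedance signal meaning reduced cell growth or viability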
Summary of the method: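 T-47D; phenol red-free RPMI1640 + 10% CS-FBS; 8 conc., 1:4 serial, max 100 uM final, ≤0.5% DMSO; n = 2; continuous exposure; impedance monitored to 80 h post-dose; AUC vs DMSO.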

[10] = system: zebrafish Estrogen Receptor (ER2a), gene 317734; assay: ATG_zfER2a_XSP2: Attagene TRANS-FACTORIAL Multi-Species (XSP2) HepG2 Assay for zebrafish Estrogen Receptor (ER2a) (AID 2283818);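 note: hits raise reporter mRNA so AC50 reflects activation of zebrafish ER2a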
Summary of the method: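 HepG2 cells transiently transfected with GAL4-UAS reporter units and chimeric zebrafish ER2a-Gal4, exposed 24 h; medium contains 3 nM 6-alpha-fluorotestosterone and 1.5 nM norgestrel. Reporter mRNA quantified by RT-PCR, HpaI digestion, capillary electrophoresis; gain versus DMSO.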

[11] = ATG_XTT_Cytotoxicity_XSP2: Cytotoxicity Assessment in the Attagene TRANS-FACTORIAL Multi-Species (XSP2) HepG2 Assay (AID 2283837)
Summary of the method: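 HepG2 cells, transiently transfected with multiple reporter constructs, exposed to chemical for 24 h. Cell number assessed with XTT fluorescence read-out; loss of signal fitted relative to DMSO.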

[12] = CEETOX_H295R_OHPROG_noMTC: CeeTox H295R High-throughput Steroidogenesis Assay for OH-Progesterone (OHPROG), maximum tolerated concentration (MTC) filtered results only (AID 2283914; active = hit-call score of the fitted dose curve at least 0.9, where 1 is the maximum; inactive = score below 0.9); settings: actives raise or lower the signal
Summary of the method: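 Forskolin 10 uM, 48 h prestim → test cmpd in DMSO (0.1% final), 48 h → medium MTBE extraction → LC-MS/MS quant of 17alpha-OH-progesterone. Bidirectional fit vs DMSO; no MTT-based MTC filtering.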

[13] = CEETOX_H295R_CORTIC_noMTC: CeeTox H295R High-throughput Steroidogenesis Assay for Corticosterone (CORTIC), maximum tolerated concentration (MTC) filtered results only (AID 2283917; active = hit-call score of the fitted dose curve at least 0.9, where 1 is the maximum; inactive = score below 0.9); settings: actives raise or lower the signal
Summary of the method: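 Following OECD 456 with minor changes, H295R cultures received 10 uM forskolin for 48 h, then test chemical at 0.1% DMSO for 48 h. Media steroids were extracted and measured by LC-MS/MS.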

[14] = CEETOX_H295R_ESTRADIOL_noMTC: CeeTox H295R High-throughput Steroidogenesis Assay for Estradiol, maximum tolerated concentration (MTC) filtered results only (AID 2283919; active = hit-call score of the fitted dose curve at least 0.9, where 1 is the maximum; inactive = score below 0.9); settings: actives raise or lower the signal
Summary of the method: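 H295R human adrenal cells pre-stimulated 48 h with 10 uM forskolin, then exposed 48 h to chemical (0.1% DMSO final). Estradiol in medium measured by HPLC-MS/MS after MTBE extraction and dansyl derivatization; bidirectional fit versus DMSO, concentrations not MTT-filtered.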

[15] = CEETOX_H295R_ESTRONE_noMTC: CeeTox H295R High-throughput Steroidogenesis Assay for Estrone, maximum tolerated concentration (MTC) filtered results only (AID 2283921; active = hit-call score of the fitted dose curve at least 0.9, where 1 is the maximum; inactive = score below 0.9); settings: actives raise or lower the signal
Summary of the method: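 H295R cells prestimulated 48 h with 10 uM forskolin, then exposed 48 h to chemical in 0.1% DMSO; medium estrone measured by HPLC-MS/MS after MTBE extraction and dansyl derivatization, fitted bidirectionally versus DMSO without MTT-based MTC filtering.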

[16] = molecular target: PGR (gene 5241) (UniProt P06401); assay: TOX21_PR_BLA_Followup_Antagonist_ratio: Tox21 HEK293 Progesterone Receptor (PR) Antagonism Beta-lactamase Follow-Up Assay, Ratio (AID 2283934);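 note: PR-UAS-bla HEK293T cells stimulated with 1 nM R5020 agonist for 16 hr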
Summary of the method: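 Antagonist mode used 1 nM R5020 (final) as agonist on a beta-lactamase reporter line in HEK293T cells. Activity was taken from the substrate cleavage ratio after 16 hr exposure.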

[17] = TOX21_PR_BLA_Followup_Antagonist_viability: Viability Assessment in the Tox21 HEK293 Progesterone Receptor (PR) Antagonism Beta-lactamase Follow-Up Assay (AID 2283936);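 note: hits lower the luminescence signal meaning cytotoxicity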
Summary of the method: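 PR-UAS-bla HEK293T cells (3,000/well, 2% charcoal-stripped FBS) given compound plus R5020 agonist, 16 h at 37C. CellTiter-Glo added after bla read, 30 min at room temperature; luminescence loss indicates cytotoxicity.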

[18] = TOX21_PR_LUC_Followup_Agonist_viability: Viability Assessment in the Tox21 HEK293 Progesterone Receptor (PR) Agonism Luciferase Follow-Up Assay (AID 2283941);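 note: loss of signal means cytotoxicity so actives lower viability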
Summary of the method: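 Luminescent ATP quantitation (CellTiter-Glo) serves as the read-out; a drop flags cytotoxic compounds. Cells are HEK293-PR-A-luc grown in 10% charcoal-stripped FBS, plated 3,000/well, and exposed to compound for 16 h.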

[19] = molecular target: Thyroid hormone receptor alpha (Rattus norvegicus) + Thyroid hormone receptor beta (Rattus norvegicus) (UniProt P18113+P63059); assay: TOX21_TR_LUC_GH3_Antagonist_Followup: Tox21 GH3 Thyroid Hormone Receptor Antagonism Luciferase Follow-Up Assay (AID 2283942)
Summary of the method: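 Confirmatory qHTS, antagonist mode: T3 (1.0 nM final) + test cpd, 15 conc, 92 uM–5nM final, GH3 rat pituitary line, 24 h, 37C. Luc reporter, RLU vs DMSO.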

[20] = molecular target: THRA (gene 7067) (UniProt P10827); assay: TOX21_TRA_COA_Antagonist_Followup_ratio: Tox21 Thyroid Hormone Receptor alpha Antagonism through Coactivator Recruitment Follow-Up Assay, Ratio (AID 2283953)
Summary of the method: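 This follow-up to the GH3 luciferase screen checks specificity in a cell-free format. It measures SRC-2 coactivator peptide binding to TRα LBD by TR-FRET and scores loss of ratio signal relative to DMSO.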

[21] = molecular target: THRB (gene 7068) (UniProt P10828); assay: TOX21_TRB_BLA_Antagonist_Followup_ratio: Tox21 Thyroid Hormone Receptor beta Antagonism Beta-lactamase (BLA) Follow-Up Assay, Ratio (AID 2283958)
Summary of the method: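 In this antagonist-mode follow-up, a stably integrated GAL4-TRβ LBD fusion drives a UAS-beta-lactamase reporter in HEK293T cells. Loss of ratio signal relative to DMSO after 18 h treatment indicates activity; parallel CellTiter-Glo flags cytotoxicity.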

O=c1cc(-c2ccc(O)cc2)oc2cc(O)cc(O)c12
outcome [1]: inactive
outcome [2]: inactive
outcome [3]: inactive

C#C[C@]1(O)CC[C@H]2[C@@H]3CCC4=Cc5oncc5C[C@]4(C)[C@H]3CC[C@@]21C
outcome [1]: inactive

CC(=O)OC/C=C(\C)CCC=C(C)C
outcome [4]: inactive

CCCCC(CC)COC(=O)c1ccc(O)cc1 (stereo unspecified)
outcome [5]: inactive
outcome [6]: inactive

CC(=O)CCC(C)C
outcome [6]: inactive

C=CC(=O)NC(C)(C)CS(=O)(=O)O
outcome [7]: inactive

CCCCCCCCOS(=O)(=O)O
outcome [8]: inactive

CC/C=C\C#N
AC50 [9]: active: 65.6 µM

O=C(O)CC(C(=O)O)S(=O)(=O)O (stereo unspecified)
outcome [9]: inactive

COc1ccc(C(=O)c2ccccc2)c(O)c1
AC50 [10]: active: 27 µM

Oc1ccc2cc(SSc3ccc4cc(O)ccc4c3)ccc2c1
AC50 [10]: active: 1.35 µM

CCCCCCCCCCCCN
AC50 [11]: active: 161 µM

COc1cc(OC)c2ccc(=O)oc2c1
outcome [12]: inactive

C=C[Si]1(C)O[Si](C)(C=C)O[Si](C)(C=C)O[Si](C)(C=C)O1 (stereo unspecified)
outcome [13]: inactive

O=C(NS(=O)(=O)/C=C/c1ccccc1)c1ccc(F)cc1Cl
outcome [14]: inactive
outcome [15]: inactive

COC(=O)[C@@H]1CC2=CC(=O)CC[C@]2(C)[C@@]23O[C@@H]2C[C@@]2(C)[C@@H](CC[C@@]24CCC(=O)O4)[C@H]13
outcome [16]: inactive

CCCC(=O)O[C@]1(C(=O)CO)CC[C@H]2[C@@H]3CCC4=CC(=O)CC[C@]4(C)[C@H]3[C@@H](O)C[C@@]21C
outcome [17]: inactive

C[C@]12CCC(=O)C=C1CC[C@@H]1[C@@H]2[C@@H](O)C[C@@]2(C)[C@H]1CC[C@]2(O)C(=O)CO
outcome [18]: inactive

Nc1ccc2cc3ccc(N)cc3nc2c1
AC50 [19]: active: 15 µM

CCc1cc(Cl)c(OC)c(C(=O)NC[C@@H]2CCCN2CC)c1O
outcome [20]: inactive

CO[C@H]1C[C@@H]2CC[C@@H](C)[C@@](O)(O2)C(=O)C(=O)N2CCCC[C@H]2C(=O)O[C@H]([C@H](C)C[C@@H]2CC[C@@H](O)[C@H](OC)C2)CC(=O)[C@H](C)/C=C(\C)[C@@H](O)[C@@H](OC)C(=O)[C@H](C)C[C@H](C)\C=C/C=C/C=C/1C
outcome [21]: inactive

O=c1cc(-c2ccccc2)oc2ccc3ccccc3c12
outcome [21]: inactive
